By UniProt entry, the sequences of proteins in these tests, tags left out. Where a name states a change or a piece, a line headed by the entry shows the natural chain unless it says otherwise.
UniProt P67775: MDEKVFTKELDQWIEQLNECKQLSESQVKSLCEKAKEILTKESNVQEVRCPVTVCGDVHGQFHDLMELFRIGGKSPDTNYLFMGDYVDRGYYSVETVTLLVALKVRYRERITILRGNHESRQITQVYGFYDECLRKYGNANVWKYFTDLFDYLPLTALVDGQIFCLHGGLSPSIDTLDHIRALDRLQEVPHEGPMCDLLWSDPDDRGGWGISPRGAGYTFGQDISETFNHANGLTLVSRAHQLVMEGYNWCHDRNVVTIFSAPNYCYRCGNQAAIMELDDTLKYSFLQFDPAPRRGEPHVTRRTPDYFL
UniProt P31749: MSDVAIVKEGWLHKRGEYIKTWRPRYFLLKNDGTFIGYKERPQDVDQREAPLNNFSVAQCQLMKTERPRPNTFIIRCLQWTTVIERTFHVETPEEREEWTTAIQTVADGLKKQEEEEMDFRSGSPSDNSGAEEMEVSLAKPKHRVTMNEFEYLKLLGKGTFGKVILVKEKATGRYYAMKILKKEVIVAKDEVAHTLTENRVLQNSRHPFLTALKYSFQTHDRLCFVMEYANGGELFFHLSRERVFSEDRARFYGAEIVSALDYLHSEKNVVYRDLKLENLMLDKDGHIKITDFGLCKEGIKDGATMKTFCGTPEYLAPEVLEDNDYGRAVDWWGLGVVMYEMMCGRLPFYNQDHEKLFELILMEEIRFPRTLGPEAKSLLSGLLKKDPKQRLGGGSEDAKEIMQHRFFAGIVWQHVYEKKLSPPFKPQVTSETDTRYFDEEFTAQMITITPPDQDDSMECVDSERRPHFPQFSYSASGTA

In article doi:10.1101/2023.03.05.531181:

Tests used:
[1] = target: Flag-PP2A-C (UniProt P67775); assay: co-IP
[2] = target: T1, V5-FBP1^L329P (human) (UniProt P09467); assay: co-IP
T1 sequence: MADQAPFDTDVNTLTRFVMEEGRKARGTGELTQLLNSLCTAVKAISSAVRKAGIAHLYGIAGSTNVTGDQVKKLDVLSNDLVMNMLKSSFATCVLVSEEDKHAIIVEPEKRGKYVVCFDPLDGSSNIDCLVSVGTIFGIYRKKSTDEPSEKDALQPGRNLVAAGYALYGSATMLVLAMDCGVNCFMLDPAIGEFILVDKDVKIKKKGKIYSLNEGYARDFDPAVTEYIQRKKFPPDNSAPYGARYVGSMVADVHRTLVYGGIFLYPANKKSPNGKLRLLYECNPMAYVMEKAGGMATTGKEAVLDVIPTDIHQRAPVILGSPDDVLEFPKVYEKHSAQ

[3] = target: T2, V5-FBP1^E98A (human) (UniProt P09467); assay: co-IP
T2 sequence: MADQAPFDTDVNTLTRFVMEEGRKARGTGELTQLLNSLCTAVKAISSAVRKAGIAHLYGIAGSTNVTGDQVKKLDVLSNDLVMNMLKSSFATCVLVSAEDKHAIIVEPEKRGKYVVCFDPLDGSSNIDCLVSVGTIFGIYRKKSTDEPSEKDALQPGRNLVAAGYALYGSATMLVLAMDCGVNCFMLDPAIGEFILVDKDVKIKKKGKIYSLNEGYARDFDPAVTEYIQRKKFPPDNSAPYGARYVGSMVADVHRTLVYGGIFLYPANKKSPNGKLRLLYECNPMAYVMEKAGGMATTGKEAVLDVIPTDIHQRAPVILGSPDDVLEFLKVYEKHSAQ

[4] = target: T3, V5-FBP1 (human) (UniProt P09467); assay: co-IP
T3 sequence: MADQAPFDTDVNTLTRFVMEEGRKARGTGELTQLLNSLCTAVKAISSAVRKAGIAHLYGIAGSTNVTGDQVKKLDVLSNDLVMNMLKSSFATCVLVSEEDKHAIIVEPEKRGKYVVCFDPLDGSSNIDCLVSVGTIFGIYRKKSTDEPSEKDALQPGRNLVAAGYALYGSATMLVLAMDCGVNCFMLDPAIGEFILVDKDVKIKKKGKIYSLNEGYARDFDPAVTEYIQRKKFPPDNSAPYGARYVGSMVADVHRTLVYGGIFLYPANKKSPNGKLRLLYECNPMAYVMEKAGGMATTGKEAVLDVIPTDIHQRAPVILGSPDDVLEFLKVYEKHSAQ

[5] = target: T4, His-FBP1 (UniProt P09467); assay: pull-down
T4 sequence: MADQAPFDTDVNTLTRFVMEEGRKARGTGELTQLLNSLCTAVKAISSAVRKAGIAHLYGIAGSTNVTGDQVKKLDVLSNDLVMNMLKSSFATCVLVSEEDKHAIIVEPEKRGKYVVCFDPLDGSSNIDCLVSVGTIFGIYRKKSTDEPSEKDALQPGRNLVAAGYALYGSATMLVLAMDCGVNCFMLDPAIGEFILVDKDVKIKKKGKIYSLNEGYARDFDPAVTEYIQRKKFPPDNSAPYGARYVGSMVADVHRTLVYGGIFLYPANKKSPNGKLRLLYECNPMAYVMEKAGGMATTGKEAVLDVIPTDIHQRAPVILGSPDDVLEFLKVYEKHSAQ

[6] = target: T5, His-ALDOB (UniProt P05062); assay: pull-down
T5 sequence: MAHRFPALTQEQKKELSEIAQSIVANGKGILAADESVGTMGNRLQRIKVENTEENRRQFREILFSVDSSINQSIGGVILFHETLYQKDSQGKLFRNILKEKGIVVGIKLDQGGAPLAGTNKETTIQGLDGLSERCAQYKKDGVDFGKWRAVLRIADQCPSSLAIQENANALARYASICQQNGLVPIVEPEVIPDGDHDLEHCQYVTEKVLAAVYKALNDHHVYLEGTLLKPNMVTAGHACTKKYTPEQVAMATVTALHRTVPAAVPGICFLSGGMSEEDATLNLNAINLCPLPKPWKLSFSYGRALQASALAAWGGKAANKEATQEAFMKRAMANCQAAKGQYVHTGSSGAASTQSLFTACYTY

[7] = target: AKT (Huh7 cells) (human (endogenous in Huh7)); assay: co-IP
[8] = target: AKT (mouse liver) (mouse (endogenous in liver)); assay: proximity ligation
[9] = target: AKT (mouse liver) (mouse (endogenous in liver)); assay: proximity ligation; remark: listed apart in the source
[10] = target: AKT (mouse liver) (mouse (endogenous in liver)); assay: co-IP
[11] = target: AKT (mouse liver) (mouse (endogenous in liver)); assay: co-IP; remark: listed apart in the source
[12] = target: AKT (mouse liver) (mouse (endogenous in liver)); assay: co-IP; remark: listed apart in the source
[13] = target: GST-PP2A-C (UniProt P67775); assay: pull-down

“AKT1 (from UniProt P31749 1-480) (enzyme)” was tested, and the binding [1] was “binds”.

“AKT (Huh7 cells) (human (endogenous in Huh7)) (enzyme)” was tested, and the binding [2] was “no binding”, the binding [3] was “binds” and the binding [4] was “binds”.

“GST-PP2A-C (from UniProt P67775) (enzyme)” was tested, and the binding [5] was “binds”.

In the case of His-AKT (enzyme), the binding [5] is reported as “binds weakly” and the binding [6] is reported as “binds”.

PP2A-C (from UniProt P67775) (enzyme) was tested, and the binding [3] was “binds” and the binding [4] was “binds”.

B1: ALDOB (Huh7 cells) (enzyme, UniProt P05062 1-364)
chain: MAHRFPALTQEQKKELSEIAQSIVANGKGILAADESVGTMGNRLQRIKVENTEENRRQFREILFSVDSSINQSIGGVILFHETLYQKDSQGKLFRNILKEKGIVVGIKLDQGGAPLAGTNKETTIQGLDGLSERCAQYKKDGVDFGKWRAVLRIADQCPSSLAIQENANALARYASICQQNGLVPIVEPEVIPDGDHDLEHCQYVTEKVLAAVYKALNDHHVYLEGTLLKPNMVTAGHACTKKYTPEQVAMATVTALHRTVPAAVPGICFLSGGMSEEDATLNLNAINLCPLPKPWKLSFSYGRALQASALAAWGGKAANKEATQEAFMKRAMANCQAAKGQYVHTGSSGAASTQSLFTACYTY
With B1 the binding [7] was “binds”.

B2: FBP1 (mouse liver) (enzyme, UniProt Q9QXD6 1-338)
chain: MANHAPFETDISTLTRFVMEQGRKAQGTGELTQLLNSLCTAIKAISSAVRQAGIAQLYGIAGSTNVTGDQVKKLDILSNDLVINMLKSSYATCVLVSEENTNAIIIEPEKRGKYVVCFDPLDGSSNIDCLVSIGTIFGIYRKKSTDEPSEKDALQPGRDLVAAGYALYGSATMLVLAMDCGVNCFMLDPSIGEFIMVDRDVKMKKKGNIYSLNEGYAKDFDPAINEYLQRKKFPPDGSAPYGARYVGSMVADIHRTLVYGGIFLYPANKKSPSGKLRLLYECNPIAYVMEKAGGLATTGDKDILDIVPTEIHQKAPVVMGSSEDVQEFLEIYRKHKAK
For B2, the binding [8] was “binds”, the binding [9] was “binds” and the binding [10] was “binds”. For the same molecule, the binding [11] was “binds” and the binding [12] was “binds”.

B3: HA-FBP1 (enzyme, UniProt Q9QXD6 1-338)
chain: MANHAPFETDISTLTRFVMEQGRKAQGTGELTQLLNSLCTAIKAISSAVRQAGIAQLYGIAGSTNVTGDQVKKLDILSNDLVINMLKSSYATCVLVSEENTNAIIIEPEKRGKYVVCFDPLDGSSNIDCLVSIGTIFGIYRKKSTDEPSEKDALQPGRDLVAAGYALYGSATMLVLAMDCGVNCFMLDPSIGEFIMVDRDVKMKKKGNIYSLNEGYAKDFDPAINEYLQRKKFPPDGSAPYGARYVGSMVADIHRTLVYGGIFLYPANKKSPSGKLRLLYECNPIAYVMEKAGGLATTGDKDILDIVPTEIHQKAPVVMGSSEDVQEFLEIYRKHKAK
In the case of B3, the binding [12] is reported as “binds”.

B4: HA/mFbp1^E98A (enzyme, UniProt Q9QXD6 1-338)
chain: MANHAPFETDISTLTRFVMEQGRKAQGTGELTQLLNSLCTAIKAISSAVRQAGIAQLYGIAGSTNVTGDQVKKLDILSNDLVINMLKSSYATCVLVSAENTNAIIIEPEKRGKYVVCFDPLDGSSNIDCLVSIGTIFGIYRKKSTDEPSEKDALQPGRDLVAAGYALYGSATMLVLAMDCGVNCFMLDPSIGEFIMVDRDVKMKKKGNIYSLNEGYAKDFDPAINEYLQRKKFPPDGSAPYGARYVGSMVADIHRTLVYGGIFLYPANKKSPSGKLRLLYECNPIAYVMEKAGGLATTGDKDILDIVPTEIHQKAPVVMGSSEDVQEFLEIYRKHKAK
B4 was tested, and the binding [12] was “binds”.

B5: ALDOB (mouse liver) (enzyme, UniProt Q91Y97 1-364)
chain: MAHRFPALTPEQKKELSEIAQRIVANGKGILAADESVGTMGNRLQRIKVENTEENRRQFRELLFSVDNSISQSIGGVILFHETLYQKDSQGNLFRNVLKEKGIVVGIKLDQGGAPLAGTNKETTIQGLDGLSERCAQYKKDGVDFGKWRAVLRIADQCPSSLAIQENANALARYASICQQNGLVPIVEPEVLPDGDHDLEHCQYVSEKVLAAVYKALNDHHVYLEGTLLKPNMVTAGHACTKKYTPEQVAMATVTALHRTVPAAVPGICFLSGGMSEEDATLNLNAINRCPLPRPWKLSFSYGRALQASALAAWGGKAANKKATQEAFMKRAMANCQAAQGQYVHTGSSGAAATQSLFTASYTY
For B5, the binding [9] was “binds”, the binding [11] was “binds” and the binding [12] was “binds”.

B6: His-ALDOB (enzyme, UniProt P05062 1-364)
chain: MAHRFPALTQEQKKELSEIAQSIVANGKGILAADESVGTMGNRLQRIKVENTEENRRQFREILFSVDSSINQSIGGVILFHETLYQKDSQGKLFRNILKEKGIVVGIKLDQGGAPLAGTNKETTIQGLDGLSERCAQYKKDGVDFGKWRAVLRIADQCPSSLAIQENANALARYASICQQNGLVPIVEPEVIPDGDHDLEHCQYVTEKVLAAVYKALNDHHVYLEGTLLKPNMVTAGHACTKKYTPEQVAMATVTALHRTVPAAVPGICFLSGGMSEEDATLNLNAINLCPLPKPWKLSFSYGRALQASALAAWGGKAANKEATQEAFMKRAMANCQAAKGQYVHTGSSGAASTQSLFTACYTY
B6 was tested, and the binding [13] was “binds”.

These are yes or no findings as the source states them, for the method shown. For part of these data: Binding can be weak; no strength is given. For part of these data: Where a sequence is shown, tags or fusion partners need not be part of it. For part of these data: Binding seen in cells or lysates may run through a third protein.
